In all, about 390,000 compounds went through this assay and about 4,000 (1%) were called active. This list was built around the results that the source calls inconclusive (neither active nor inactive); the mix of calls is not that of the screen. Calls come from the whole dose curve; as a rule, active = well fitted inhibition curve with a large enough effect; inconclusive = small, poorly fitted or top-dose-only effect, or another doubt; inactive = no such curve, though single readings can be large or run the other way. Potencies beside an inconclusive call are fits to weak or partial responses and may not hold up.
The molecules below were run against DNA polymerase iota (Homo sapiens) (UniProt Q9UNA4) (assay: qHTS for Inhibitors of Polymerase Iota). Conditions: Pol iota fluorescent replication assay, 10 min; series mostly up to 115 µM.
Summary of the method: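 Fluorescent replication assay read twice, at 0 min and 10 min after adding 50 nM (final) substrate. Enzyme (10 nM) and compounds were first incubated 15 min at room temperature; enzyme-free buffer wells were negative controls.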
Potency is the fitted concentration of half-maximal effect.

Protein sequences, listed by entry. Tags and fused reporters are not part of them. Lines headed by an entry give the natural chain unless they say otherwise; changes in a name come on top.
UniProt Q9UNA4: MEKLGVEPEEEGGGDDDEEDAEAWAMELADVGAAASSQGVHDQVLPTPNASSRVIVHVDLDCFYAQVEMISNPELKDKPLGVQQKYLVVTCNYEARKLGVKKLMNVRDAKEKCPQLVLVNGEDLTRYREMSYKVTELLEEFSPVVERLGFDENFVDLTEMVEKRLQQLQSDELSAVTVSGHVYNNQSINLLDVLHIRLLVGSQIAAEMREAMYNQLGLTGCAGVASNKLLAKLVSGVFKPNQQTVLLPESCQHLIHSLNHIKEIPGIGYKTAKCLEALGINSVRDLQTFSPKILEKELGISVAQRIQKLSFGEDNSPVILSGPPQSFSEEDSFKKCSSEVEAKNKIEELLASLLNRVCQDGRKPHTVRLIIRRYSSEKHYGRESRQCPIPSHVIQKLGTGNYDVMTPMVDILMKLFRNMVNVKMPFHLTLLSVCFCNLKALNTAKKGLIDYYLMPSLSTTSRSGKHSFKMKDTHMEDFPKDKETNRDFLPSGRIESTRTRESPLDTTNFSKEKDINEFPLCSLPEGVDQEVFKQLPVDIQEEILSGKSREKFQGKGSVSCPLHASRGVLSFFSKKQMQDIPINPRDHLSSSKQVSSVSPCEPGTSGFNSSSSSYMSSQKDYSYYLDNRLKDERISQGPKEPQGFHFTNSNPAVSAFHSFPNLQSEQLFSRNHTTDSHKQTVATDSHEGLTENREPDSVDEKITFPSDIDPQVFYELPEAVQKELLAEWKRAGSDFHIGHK

SMILES | Potency
c1ccc2c(C[C@@H]3CNCCN3CCCCC3CCCCC3)cccc2c1 | inconclusive: 10 µM [inhibitor, single point]
O=S1(=O)C=C(Sc2nc3cc(Cl)ccc3o2)c2ccccc21 | inconclusive: 79.4 µM [inhibitor, partial curve, poor fit]
COc1ccc(NC(=O)c2cc(-c3ccncc3)nc3ccccc23)c(OC)c1 | inactive
COc1cccc(C2C(C(=O)OC(C)C)=C(C)N=c3s/c(=C\c4ccc(C(=O)O)cc4)c(=O)n32)c1 (centres undefined) | inconclusive: 50.1 µM [inhibitor, partial curve, poor fit]
Fc1ccc(CNC(=S)Nc2ccccc2F)cc1 | inconclusive: 0.708 µM [inhibitor, full curve, poor fit]
O=C(c1ccccc1)n1nc(-c2ccccc2)nc1NCc1ccco1 | inconclusive: 39.8 µM [inhibitor, single point]
COc1ccccc1N1CCN(S(=O)(=O)c2c(C)ccc3nsnc23)CC1 | inconclusive: 79.4 µM [inhibitor, single point]
CS(=O)(=O)c1ccccc1C(=O)Nc1nc2ccccc2[nH]1 | inconclusive: 17.8 µM [inhibitor, full curve, poor fit]
CCOC(=O)C(C)N1C(=O)S/C(=C/c2cc(C)n(-c3ccncc3)c2C)C1=O (centres undefined) | inactive
CC(CCc1ccccc1)NC(=O)Cn1ncc2c3ccccc3n(Cc3cccc(Cl)c3)c2c1=O (centres undefined) | inconclusive: 100 µM [inhibitor, single point]
CC(C)(C)c1cc(CNC2CS(=O)(=O)C[C@@H]2O)cc(C(C)(C)C)c1O (some centres undefined) | inconclusive: 39.8 µM [inhibitor, single point]
CC1=C(C#N)c2nc(N)c(C#N)c(C)c2/C1=C\c1ccc(-c2ccccc2C(=O)O)o1 | inconclusive: 39.8 µM [inhibitor, partial curve, poor fit]
O=P(c1ccccc1)(c1ccccc1)c1nc(-c2ccccc2)oc1NCc1ccccc1 | inconclusive: 79.4 µM [inhibitor, partial curve, poor fit]
COc1cc(/C=C2\COC/C(=C\c3cc(OC)c(OC)c(OC)c3)C2=O)cc(OC)c1OC | active: 11.2 µM
Cc1[nH]c2ccccc2c1C1(O)C(=O)N(Cc2ccccc2)c2ccc(Br)cc21 (centres undefined) | inactive
COC(=O)C(NNc1ccccc1)(NC(=O)c1ccc(F)cc1)C(F)(F)F (centres undefined) | inactive
Cc1ccc(NC(=O)Cc2ccc(-n3cccc3)cc2)c(C)c1 | inconclusive: 79.4 µM [inhibitor, partial curve]
CCOC(=O)c1c(NC(=O)c2cc(=O)c3c(C)cc(C)cc3o2)sc(C)c1C | inactive
Cc1nc2c(C(=O)N3CCCC3)cnn2c(C)c1Cc1c(F)cccc1Cl | inactive
COc1ccc(-n2nc3c(N4CCCC(C(=O)NCc5ccccc5C)C4)nnc(C)c3c2C)cc1 (centres undefined) | inconclusive: 79.4 µM [inhibitor, single point]
Nc1c(-c2ccccc2)c(CN2CCOCC2)nn1-c1ccc(C(=O)O)cc1 | inactive
CCOc1ccc(NC(=O)COc2ccccc2)c([N+](=O)[O-])c1 | inactive

SMILES | Potency
Cc1ccc(S(=O)(=O)Nc2cc(C(=O)NCCN(C)C)ccc2N2CCCC2)cc1 | inconclusive: 25.1 µM [inhibitor, partial curve]
O=[N+]([O-])c1ccc(NN=Cc2ccccc2O)nc1 | inactive
Cc1ccc(-n2nc(C)c(C(=O)N3CCN(C(=O)c4ccco4)CC3)c2-n2cccc2)cc1 | inconclusive: 89.1 µM [inhibitor, partial curve, poor fit]
O=C(N=Nc1c(O)[nH]c2ccccc12)c1cc(-c2cccs2)[nH]n1 | inconclusive: 22.4 µM [inhibitor, partial curve, poor fit]
Cc1ccc(NN=Nc2nc3c([nH]2)c(=O)n(C)c(=O)n3C)cc1 | inconclusive: 39.8 µM [inhibitor, single point]
CN(c1ccc(OCC(=O)OCC(=O)Nc2ccc([N+](=O)[O-])cc2)cc1)S(=O)(=O)c1cccs1 | inactive
CCc1ccc(CNC(=O)CCn2ccc3cc(S(=O)(=O)N4CCCC4)ccc32)cc1 | inconclusive: 79.4 µM [inhibitor, partial curve, poor fit]
Oc1c(Br)cc(C2N=C(c3ccccc3)NO2)cc1Br (centres undefined) | inconclusive: 44.7 µM [inhibitor, partial curve, poor fit]
COc1ccc(C(=O)NC(=S)NCCc2ccccc2)cc1 | inactive
Cc1cccc(C(=O)n2nc(-c3ccco3)nc2NCc2ccccc2)c1 | inactive
COc1ccc([C@H]2CC(=O)C=C(c3ccc(OC)c(F)c3)C2)cc1 | inconclusive: 89.1 µM [inhibitor, single point]
O=C1c2ccccc2[C@@H]2CC(O)C(O)CCN12 (some centres undefined) | inconclusive: 20 µM [inhibitor, partial curve, poor fit]
Cc1c(/C=C2\SC(=Nc3cccc(C(=O)O)c3)NC2=O)c2ccccc2n1C | inconclusive: 25.1 µM [inhibitor, partial curve, poor fit]
CCOC(=O)C1CCN(Cc2nc(-c3ccc(OC)c(OC)c3)no2)CC1 | inconclusive: 79.4 µM [inhibitor, single point]
CCN(CC)S(=O)(=O)c1ccc2c(c1)N(CC(=O)Nc1cccc(C(C)=O)c1)C(=O)CO2 | inactive
CCN(CC)S(=O)(=O)c1ccc(OC)c(NC(=O)/C=C/c2ccco2)c1 | inconclusive: 25.1 µM [inhibitor, full curve]
Cc1c(N=Cc2nc3ccccc3[nH]2)c(=O)n(-c2ccccc2)n1C | inconclusive: 5.01 µM [inhibitor, full curve, poor fit]
NS(=O)(=O)c1ccc(CNC(=O)CSc2nc3ccc(Cl)cc3[nH]2)cc1 | inactive
COc1ccccc1C(=O)NC1(C(F)(F)F)C(=O)NC(C)=C1C#N (centres undefined) | inconclusive: 89.1 µM [inhibitor, single point]
COc1cccc(N2CCN(S(=O)(=O)c3cc4c(cc3Cl)NC(=O)CO4)CC2)c1 | inconclusive: 50.1 µM [inhibitor, partial curve, poor fit]
COc1ccccc1NS(=O)(=O)c1cc(NC(=O)CNC(=O)c2ccccc2)ccc1C | inactive
CCN(CC)S(=O)(=O)c1ccc(OC)c(NC(=O)CSc2cc(C)ccc2C)c1 | inactive

3 compounds from above, sorted by number of heavy atoms, rising:
SMILES | Potency
COc1ccc([C@H]2CC(=O)C=C(c3ccc(OC)c(F)c3)C2)cc1 | inconclusive: 89.1 µM [inhibitor, single point]
Cc1c(/C=C2\SC(=Nc3cccc(C(=O)O)c3)NC2=O)c2ccccc2n1C | inconclusive: 25.1 µM [inhibitor, partial curve, poor fit]
CN(c1ccc(OCC(=O)OCC(=O)Nc2ccc([N+](=O)[O-])cc2)cc1)S(=O)(=O)c1cccs1 | inactive

(more compounds)

SMILES | Potency
NC(=O)C1CCN(c2nc(-c3cccc(Cl)c3)cs2)CC1 | inconclusive: 79.4 µM [inhibitor, single point]
Cc1ccc(OCC(=O)Nc2ccc(NC(=O)c3ccco3)cc2)c(C)c1 | inconclusive: 15.8 µM [inhibitor, partial curve, poor fit]
O=C1C=C(c2ccccc2)C(O)(c2ccccc2)C1 (centres undefined) | inconclusive: 89.1 µM [inhibitor, single point]
C=CCN1c2ccccc2[C@]23C[C@@H](C(=O)OC)N(C(=O)c4cccs4)C2=NC(C(=O)OC)=C(C(=O)OC)[C@H]13 | inconclusive: 17.8 µM [inhibitor, partial curve, poor fit]
CCOC(=O)c1ccc(Oc2nc(N(C)C)nc(N3CCOCC3)n2)cc1 | inconclusive: 89.1 µM [inhibitor, single point]
COc1ccc(S(=O)(=O)NNC(=O)Cc2csc(C)n2)cc1[N+](=O)[O-] | active: 50.1 µM
COc1ccc(CCNC(=O)c2noc3c2CCCC3)cc1OC | inconclusive: 89.1 µM [inhibitor, single point]
COc1ccc(Cn2nc3n(c2=O)-c2ccccc2OC3)cc1 | inconclusive: 89.1 µM [inhibitor, single point]
Nc1cc(-c2nn[nH]n2)ccc1F | inconclusive: 15.8 µM [inhibitor, full curve, poor fit]
Cc1ccc(NC(=O)CSc2sc3c(O)cc(=O)[nH]c3c2C#N)cc1C | inconclusive: 50.1 µM [inhibitor, partial curve, poor fit]
COc1ccc(NC(=O)CCCCCN2C(=O)c3cccc([N+](=O)[O-])c3C2=O)c(OC)c1 | inconclusive: 11.2 µM [inhibitor, partial curve, poor fit]
CCOC(=O)c1c(Nc2ccc(OCC)cc2)nnc(-c2ccccc2)c1-c1ccccc1 | inactive
O=C(c1ccc2c(=O)n3c(nc2c1)CCCCC3)N1CCN(c2ccccc2)CC1 | inactive
Cc1cccc(N2CCN(C(=O)C3CCN(S(=O)(=O)Cc4ccccc4)CC3)CC2)c1C | inactive
CC(C)c1cnc2c(c1SCC(=O)c1ccc(Cl)cc1)c(=O)n(C)c(=O)n2C | inactive
O=C(O)c1cc(Cl)ccc1-c1ccc(/C=C/c2cc(C(F)(F)F)[nH]c(=O)n2)o1 | inconclusive: 15.8 µM [inhibitor, full curve, poor fit]
COc1ccc2ncc3c(-c4ccccc4)nn(-c4ccc(C)c(C)c4)c3c2c1 | inconclusive: 100 µM [inhibitor, partial curve, poor fit]
CCn1cc(C(=O)Nc2ncccc2O)c(=O)c2cc(F)c(N3CCN(C(=O)c4ccco4)CC3)cc21 | active: 70.8 µM
C#CCOCCOCCOCCNc1nc(N2CCN(C(=O)Cn3cc(CC(C)O)nn3)CC2)nc(N2CCN(C(=O)[C@H]([C@@H](C)O)n3cc(CCCCN)nn3)CC2)n1 (some centres undefined) | inconclusive: 44.7 µM [inhibitor, partial curve, poor fit]
O=C(NC(Cc1ccccc1)C(=O)O)/C(=C\c1ccco1)NC(=O)c1ccccc1 (centres undefined) | inconclusive: 44.7 µM [inhibitor, full curve, poor fit]
